Measurements taken from PubChem BioAssay (Tox21).
The shares of active, inactive and inconclusive entries below differ from those in the screen. For some of these results: Potencies of inconclusive entries are doubtful fits and often do not repeat. The source made the active and inactive calls. Unless noted, the call rests on the fitted dose curve.

Sequences of proteins named here, by UniProt entry; tags and fusion partners are left off. A change or cut given only in a name is not applied to a line headed by its entry.
UniProt P11229: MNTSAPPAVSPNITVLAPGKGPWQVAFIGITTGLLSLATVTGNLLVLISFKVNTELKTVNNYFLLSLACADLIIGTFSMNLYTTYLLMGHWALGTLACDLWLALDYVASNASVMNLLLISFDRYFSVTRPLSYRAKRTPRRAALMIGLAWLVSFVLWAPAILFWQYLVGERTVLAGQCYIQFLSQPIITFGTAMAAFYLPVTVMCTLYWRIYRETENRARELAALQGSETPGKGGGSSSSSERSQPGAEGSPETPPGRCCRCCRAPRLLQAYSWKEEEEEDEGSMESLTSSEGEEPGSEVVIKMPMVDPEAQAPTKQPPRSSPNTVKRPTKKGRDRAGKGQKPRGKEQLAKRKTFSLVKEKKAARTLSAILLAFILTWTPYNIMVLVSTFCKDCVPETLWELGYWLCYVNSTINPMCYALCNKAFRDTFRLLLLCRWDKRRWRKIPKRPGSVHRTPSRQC
UniProt P14416, whole entry, looked up: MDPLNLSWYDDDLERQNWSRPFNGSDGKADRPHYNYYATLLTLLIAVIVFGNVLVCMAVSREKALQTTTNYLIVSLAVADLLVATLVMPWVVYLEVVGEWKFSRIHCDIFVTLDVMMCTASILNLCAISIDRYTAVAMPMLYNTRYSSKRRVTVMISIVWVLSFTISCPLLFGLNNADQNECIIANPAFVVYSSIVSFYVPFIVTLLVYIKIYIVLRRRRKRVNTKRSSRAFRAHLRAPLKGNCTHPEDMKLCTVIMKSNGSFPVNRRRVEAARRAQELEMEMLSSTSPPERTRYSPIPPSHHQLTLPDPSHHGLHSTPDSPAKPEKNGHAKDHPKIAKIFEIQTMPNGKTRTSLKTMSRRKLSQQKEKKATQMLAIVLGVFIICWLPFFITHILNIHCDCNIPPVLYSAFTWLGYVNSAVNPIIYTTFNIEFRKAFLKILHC
UniProt P28223, whole entry, looked up: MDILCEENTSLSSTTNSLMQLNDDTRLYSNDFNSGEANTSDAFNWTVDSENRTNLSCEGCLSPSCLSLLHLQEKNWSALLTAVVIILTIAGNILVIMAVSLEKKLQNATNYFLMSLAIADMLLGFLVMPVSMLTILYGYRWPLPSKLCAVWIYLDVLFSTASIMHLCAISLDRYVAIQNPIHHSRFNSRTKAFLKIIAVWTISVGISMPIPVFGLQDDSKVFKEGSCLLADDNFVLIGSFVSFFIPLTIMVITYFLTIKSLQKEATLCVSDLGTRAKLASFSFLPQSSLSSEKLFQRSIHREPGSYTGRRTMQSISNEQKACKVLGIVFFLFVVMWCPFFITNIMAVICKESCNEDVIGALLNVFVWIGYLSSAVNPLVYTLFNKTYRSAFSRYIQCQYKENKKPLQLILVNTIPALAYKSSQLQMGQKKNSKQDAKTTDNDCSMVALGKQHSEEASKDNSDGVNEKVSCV

Assays:
[1] = p53 small molecule agonists, cell-based qHTS assay with human liver microsomes: qHTS cell viability counter screen (AID 1963579); further: nearly all actives have a fitted effect of over 45% in size; further: potency means the concentration at half of the fitted maximal effect
How it was run: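 HLM-supplemented (0.5 mg/mL final) and NADPH-supplemented (0.5 mg/mL final) p53RE-bla cultures, 4,000 cells per well, were dosed with compounds in DMSO for 16 h at 37 C; luminescent ATP detection (CellTiter-Glo, 30 min, room temperature) quantified surviving cells.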

[2] = p53 small molecule agonists, cell-based qHTS assay with rat liver microsomes: qHTS cell viability counter screen (AID 1963580); further: nearly all actives have a fitted effect of over 45% in size; further: potency means the concentration at half of the fitted maximal effect; on activity change, negative = cytotoxicity: on the % scale 0 is the no-effect control and ±100 the full control effect
How it was run: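 p53RE-bla HCT-116 cells were exposed 16 h at 37 C to compounds with rat liver microsomes (0.5 mg/mL) and NADPH (0.5 mg/mL). Viability was measured in the same wells as ATP content by CellTiter-Glo luminescence.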

[3] = cAMP Responsive Elements (CRE) small molecule antagonists, cell-based qHTS assay (AID 1963591; active means well fitted inhibition curve with a large enough effect in the signal ratio in the repeat runs, not every such curve was filed as active; inconclusive means weak or mixed curves, or effect the other way; the % refers to the signal ratio; further: potency means the concentration at half of the fitted maximal effect; on activity change, negative = inhibition: on the % scale 0 is the no-effect control and ±100 the full control effect); details: CRE-bla HEK293T, beta-lactamase FRET ratio
How it was run: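 qHTS in CRE-bla HEK 293T cells: compound in DMSO, then 0.25 uM NKH477 (final), 3 h at 37 °C/5% CO2; beta-lactamase FRET read-out after 2 h substrate incubation.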

[4] = target: Beta-2 adrenergic receptor (Homo sapiens) (UniProt P07550); assay: Adrenergic beta2 receptor (ADRB2) small molecule agonists, cell-based qHTS assay (AID 1963593); details: CHO-ADRB2 cells, cAMP HTRF, 30 min; activation: at 92.4 µM (top of the series) unless noted; further: potency means the concentration at half of the fitted maximal effect;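 on activation: CHO cells stably overexpressing human ADRB2; on the % scale 0 is the no-effect control and ±100 the full control effect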
How it was run: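 CHO cells stably over-expressing ADRB2 were plated overnight at 37C, then dosed with compounds plus a stimulation mix containing 100uM IBMX and 25uM Ro-20-1724 for 0.5hr at room temperature. cAMP was measured by HTRF competition, 1hr.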

[5] = target: Muscarinic acetylcholine receptor M1 (Homo sapiens) (UniProt P11229); assay: Cholinergic receptor muscarinic 1 (CHRM1) small molecule antagonists, cell-based qHTS assay (AID 1963588); further: nearly all actives have a fitted effect of over 40% in size; further: potency means the concentration at half of the fitted maximal effect; on activity, negative = inhibition: on the % scale 0 is the no-effect control and ±100 the full control effect
How it was run: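 CHRM1-CHO calcium-flux assay, antagonist mode. Cells were seeded 18 h, dye-loaded 1 h at 37 C and given compound for 5 min at RT, then acetylcholine was added at 50nM. FDSS fluorescence was read 3 min; 15 concentrations, three runs.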

[6] = target: Muscarinic acetylcholine receptor M1 (Homo sapiens) (UniProt P11229); assay: Cholinergic receptor muscarinic 1 (CHRM1) small molecule agonists, cell-based qHTS assay (AID 1963589); further: on the % scale 0 is the no-effect control and ±100 the full control effect; nearly all actives have a fitted effect of over 35% in size
How it was run: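 Stable CHRM1-CHO cells (human receptor) were incubated 18 h, dye-loaded for 1 h at 37 C and exposed to test compounds for agonist activity, with calcium-dependent fluorescence followed kinetically.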

[7] = p53 small molecule agonists, cell-based qHTS assay: qHTS cell viability counter screen (AID 1963581); further: nearly all actives have a fitted effect of over 45% in size; further: potency means the concentration at half of the fitted maximal effect
How it was run: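 Compounds are pinned onto HCT-116 p53RE-bla cells and left 16 h at 37 C. Following the reporter FRET read, ATP is quantified by CellTiter-Glo luminescence after 30 min at room temperature.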

[8] = p53 small molecule agonists, cell-based qHTS assay (AID 1963582; active means well fitted activation curve with a large enough effect in the signal ratio in the repeat runs, not every such curve was filed as active; inconclusive means weak or mixed curves; the % refers to the signal ratio; further: potency means the concentration at half of the fitted maximal effect); details: HCT-116 p53RE-bla reporter, beta-lactamase FRET ratio, 16 h; activation: at 66 µM (top of the series) unless noted
How it was run: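 Agonist activity was scored from beta-lactamase FRET fluorescence in p53RE-bla cells treated 16 h at 37 C with compounds in DMSO, substrate incubation being 2 h at room temperature.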

[9] = cAMP Responsive Elements (CRE) small molecule agonists, cell-based qHTS assay (AID 1963590); details: CRE-bla HEK293T, beta-lactamase FRET ratio, 3 h; activation: at 92.4 µM (top of the series) unless noted; further: potency means the concentration at half of the fitted maximal effect
How it was run: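 FRET-based beta-lactamase readout (LiveBLAzer B/G, 2 h RT) quantified CRE activation in HEK 293T CRE-bla cells after 3 h treatment with DMSO-dissolved compounds.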

[10] = target: D(2) dopamine receptor (Homo sapiens) (UniProt P14416); assay: Dopamine D2 receptor (DRD2) small molecule antagonists, cell-based qHTS assay (AID 1963595; active means well fitted inhibition curve with a large enough effect in the signal ratio in the repeat runs, with a control signal flat; inconclusive means weak or mixed curves, or effect the other way; the % refers to the signal ratio; further: potency means the concentration at half of the fitted maximal effect); details: HEK293-DRD2 cAMP HTRF antagonist mode; activity change, negative = inhibition: at 92.4 µM (top of the series) unless noted
How it was run: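 DRD2-HEK293; 0.1 mM Ro20-1724; cpd 10 min RT; NKH477 200 nM + quinpirole 12 nM, 30 min RT; HTRF cAMP (cAMP-d2/anti-cAMP cryptate), 665/620 nm ratio after 1 h.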

[11] = target: 5-hydroxytryptamine receptor 2A (Homo sapiens) (UniProt P28223); assay: 5-hydroxytryptamine receptor 2A (HTR2A) small molecule agonists, cell-based qHTS assay (AID 1963587); further: on the % scale 0 is the no-effect control and ±100 the full control effect; nearly all actives have a fitted effect of over 30% in size
How it was run: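 CHO cells stably expressing human HTR2A, plated 18 h, loaded with calcium dye 1 h at 37 C. Agonist mode: compounds added and intracellular calcium fluorescence recorded kinetically for 2 min at 1 sec intervals.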

[12] = target: D(2) dopamine receptor (Homo sapiens) (UniProt P14416); assay: Dopamine D2 receptor (DRD2) small molecule agonists, cell-based qHTS assay (AID 1963594); details: HEK293-DRD2 cAMP HTRF, agonist mode, 30 min; activation: at 92.4 µM (top of the series) unless noted; further: nearly all actives have a fitted effect of over 35% in size; further: potency means the concentration at half of the fitted maximal effect
How it was run: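 HEK293 cells stably expressing human DRD2, pre-treated with PDE inhibitor Ro20-1724 (0.1 mM final) and compound 10 min at room temperature, then stimulated with NKH477 (200nM […]) for 30 min. cAMP read by HTRF (665/620 nm).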

[13] = target: Beta-2 adrenergic receptor (Homo sapiens) (UniProt P07550); assay: Adrenergic beta2 receptor (ADRB2) small molecule antagonists, cell-based qHTS assay (AID 1963592); details: CHO-ADRB2 cells, isoproterenol-stimulated cAMP HTRF ratio, 0.5 h; activity change, negative = inhibition: at 92.4 µM (top of the series) unless noted; further: potency means the concentration at half of the fitted maximal effect; nearly all actives have a fitted effect of over 50% in size
How it was run: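 Cells (CHO, stable ADRB2 overexpression) incubated 18-20hr at 37C; compounds added from DMSO; agonist mix (1nM isoproterenol, 100uM IBMX, 25uM Ro-20-1724) added; 0.5hr RT; d2-cAMP and anti-cAMP-cryptate added; 1hr RT; 665/615 nm read.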

[14] = activity change, negative = inhibition: at 92.4 µM (top of the series) unless noted

## Nc1ccc(S(=O)(=O)Nc2cnc3ccccc3n2)cc1
[1]
  Potency: inconclusive: 8.9 µM [rising, single point]
[2]
  Potency: inactive
[3]; [14]
  activity change, negative = inhibition: inconclusive: 23.5%
[4]
  activation: inconclusive: 12.2%

## C/C=C/C(=O)CC
[1]
  Potency: inconclusive: 5.56 µM [cytotoxic, partial curve, poor fit]
[2]
  Potency: inconclusive: 7.85 µM [cytotoxic, single point]
[5]
  activity, negative = inhibition: inactive: 37.8% [at 12.6 µM]
[6]
  activation: inactive: 0.129% [at 15.8 µM]
[4]
  activation: inactive: 2.86% [at 19 µM]

## CCc1ccccc1O
[1]
  Potency: inconclusive: 45.5 µM [rising, single point]
[2]
  Potency: inconclusive: 1.81 µM [cytotoxic, single point]
[3]; [14]
  Potency: inactive
[4]
  activation: inconclusive: -28.4%

## CCCCC1=NC2(CCCC2)C(=O)N1Cc1ccc(-c2ccccc2-c2nn[nH]n2)cc1
[1]
  Potency: inactive
[7]
  Potency: inconclusive: 5 µM [rising, partial curve]
[8]
  Potency: inconclusive: 25.1 µM [rising, partial curve, poor fit]
[9]
  Potency: inconclusive: 23.7 µM [rising, partial curve]
[3]; [14]
  Potency: inconclusive: 26.6 µM [fluorescent]
[4]
  Potency: inconclusive: 3.76 µM [inhibitor, full curve, poor fit]

## CN(C)CCOC1=Cc2ccccc2Sc2ccc(Cl)cc21
[1]
  Potency: inconclusive: 12.6 µM [rising, single point]
[7]
  Potency: inconclusive: 19.9 µM [rising, partial curve, poor fit]
[8]
  Potency: inconclusive: 12.6 µM [rising, partial curve]
[4]
  Potency: inactive

## C1COCCN1
[1]
  Potency: inactive
[2]
  Potency: inconclusive: 1.82 µM [cytotoxic, single point]
[4]
  Potency: inconclusive: 1.37 µM [inhibitor, single point]
[10]
  activity change, negative = inhibition: inconclusive: -1.04%

## C=CC(=C)CC/C=C(\C)CCC=C(C)C
[1]
  activity change, negative = cytotoxicity: inactive: 1.39% [at 13.5 µM]
[2]
  Potency: inconclusive: 0.0867 µM [cytotoxic, full curve, poor fit]
[4]
  activation: inactive: -16.2% [at 19 µM]

## N#Cc1cc2ccccc2c2ccccc12
[1]
  Potency: inactive
[7]
  Potency: inconclusive: 36.5 µM [rising, single point]
[8]
  activation: inconclusive: 14.9%
[11]
  Potency: inactive
[5]
  Potency: inconclusive: 15 µM [inhibitor, single point]
[4]
  Potency: inconclusive: 68.9 µM [inhibitor, single point]

## N[C@H]1C(O)O[C@H](CO)[C@H](O)[C@@H]1O (stereo partly drawn)
[1]
  Potency: inconclusive: 0.408 µM [cytotoxic, single point]
[2]
  Potency: inactive
[3]; [14]
  activity change, negative = inhibition: inconclusive: -14.8%
[4]
  activation: inconclusive: 0.26%
[12]
  Potency: inactive

## CC(C)Cn1cnc2c(N)nc3ccccc3c21
[1]
  Potency: inconclusive: 1.37 µM [rising, full curve, poor fit]
[7]
  Potency: inconclusive: 9.73 µM [rising, partial curve]
[8]
  Potency: inconclusive: 0.274 µM [rising, full curve, poor fit]
[9]
  activation: inactive: 3.84% [at 19 µM]
[3]; [14]
  activity change, negative = inhibition: inactive: 2.85% [at 18.9 µM]
[4]
  activation: inconclusive: 14.4% [at 19 µM]
[12]
  activation: inconclusive: 20.3% [at 19 µM]
[10]
  activity change, negative = inhibition: inconclusive: 5.61% [at 18.9 µM]

## O=C(c1ccccc1)C1CCC1
[1]
  Potency: inconclusive: 45.8 µM [cytotoxic, partial curve, poor fit]
[2]
  Potency: inactive
[9]
  Potency: inactive
[4]
  Potency: inactive
[12]
  Potency: inactive

## O=S(=O)(O)CCO
[1]
  Potency: inactive
[7]
  Potency: inactive
[8]
  Potency: inactive
[4]
  Potency: inconclusive: 0.246 µM [inhibitor, single point]
[12]
  Potency: inconclusive: 1.82 µM [falling, full curve, poor fit]

## C=CC(=O)OCC(CO)(COCC(COC(=O)C=C)(COC(=O)C=C)COC(=O)C=C)COC(=O)C=C
[1]
  Potency: active: 3.2 µM
[7]
  Potency: active: 14.3 µM
[8]
  activation: inconclusive: 23.2%
[9]
  Potency: inconclusive: 19.1 µM [rising, partial curve]
[3]; [14]
  Potency: inconclusive: 17 µM
[13]
  Potency: inconclusive: 24 µM [activator, partial curve, poor fit]
[4]
  Potency: active: 30.3 µM
[10]
  Potency: active: 27 µM

## CCCCOCCOC(=O)c1ccccc1C(=O)OCCOCCCC
[1]
  Potency: inconclusive: 45.8 µM [cytotoxic, single point]
[2]
  Potency: inconclusive: 39.9 µM [cytotoxic, partial curve, poor fit]
[9]
  Potency: inactive
[3]; [14]
  activity change, negative = inhibition: inconclusive: 4.6%
[3]; at 92.4 µM (top of the series)
  activity change, negative = inhibition: inactive: -11.4%
[4]
  Potency: inconclusive: 1.34 µM [inhibitor, single point] and inactive
